Primary screen of a compound library

Chains of the proteins cited; added tags and fusions are not shown. Residues count along the entry.
UniProt I6X8D2, whole entry: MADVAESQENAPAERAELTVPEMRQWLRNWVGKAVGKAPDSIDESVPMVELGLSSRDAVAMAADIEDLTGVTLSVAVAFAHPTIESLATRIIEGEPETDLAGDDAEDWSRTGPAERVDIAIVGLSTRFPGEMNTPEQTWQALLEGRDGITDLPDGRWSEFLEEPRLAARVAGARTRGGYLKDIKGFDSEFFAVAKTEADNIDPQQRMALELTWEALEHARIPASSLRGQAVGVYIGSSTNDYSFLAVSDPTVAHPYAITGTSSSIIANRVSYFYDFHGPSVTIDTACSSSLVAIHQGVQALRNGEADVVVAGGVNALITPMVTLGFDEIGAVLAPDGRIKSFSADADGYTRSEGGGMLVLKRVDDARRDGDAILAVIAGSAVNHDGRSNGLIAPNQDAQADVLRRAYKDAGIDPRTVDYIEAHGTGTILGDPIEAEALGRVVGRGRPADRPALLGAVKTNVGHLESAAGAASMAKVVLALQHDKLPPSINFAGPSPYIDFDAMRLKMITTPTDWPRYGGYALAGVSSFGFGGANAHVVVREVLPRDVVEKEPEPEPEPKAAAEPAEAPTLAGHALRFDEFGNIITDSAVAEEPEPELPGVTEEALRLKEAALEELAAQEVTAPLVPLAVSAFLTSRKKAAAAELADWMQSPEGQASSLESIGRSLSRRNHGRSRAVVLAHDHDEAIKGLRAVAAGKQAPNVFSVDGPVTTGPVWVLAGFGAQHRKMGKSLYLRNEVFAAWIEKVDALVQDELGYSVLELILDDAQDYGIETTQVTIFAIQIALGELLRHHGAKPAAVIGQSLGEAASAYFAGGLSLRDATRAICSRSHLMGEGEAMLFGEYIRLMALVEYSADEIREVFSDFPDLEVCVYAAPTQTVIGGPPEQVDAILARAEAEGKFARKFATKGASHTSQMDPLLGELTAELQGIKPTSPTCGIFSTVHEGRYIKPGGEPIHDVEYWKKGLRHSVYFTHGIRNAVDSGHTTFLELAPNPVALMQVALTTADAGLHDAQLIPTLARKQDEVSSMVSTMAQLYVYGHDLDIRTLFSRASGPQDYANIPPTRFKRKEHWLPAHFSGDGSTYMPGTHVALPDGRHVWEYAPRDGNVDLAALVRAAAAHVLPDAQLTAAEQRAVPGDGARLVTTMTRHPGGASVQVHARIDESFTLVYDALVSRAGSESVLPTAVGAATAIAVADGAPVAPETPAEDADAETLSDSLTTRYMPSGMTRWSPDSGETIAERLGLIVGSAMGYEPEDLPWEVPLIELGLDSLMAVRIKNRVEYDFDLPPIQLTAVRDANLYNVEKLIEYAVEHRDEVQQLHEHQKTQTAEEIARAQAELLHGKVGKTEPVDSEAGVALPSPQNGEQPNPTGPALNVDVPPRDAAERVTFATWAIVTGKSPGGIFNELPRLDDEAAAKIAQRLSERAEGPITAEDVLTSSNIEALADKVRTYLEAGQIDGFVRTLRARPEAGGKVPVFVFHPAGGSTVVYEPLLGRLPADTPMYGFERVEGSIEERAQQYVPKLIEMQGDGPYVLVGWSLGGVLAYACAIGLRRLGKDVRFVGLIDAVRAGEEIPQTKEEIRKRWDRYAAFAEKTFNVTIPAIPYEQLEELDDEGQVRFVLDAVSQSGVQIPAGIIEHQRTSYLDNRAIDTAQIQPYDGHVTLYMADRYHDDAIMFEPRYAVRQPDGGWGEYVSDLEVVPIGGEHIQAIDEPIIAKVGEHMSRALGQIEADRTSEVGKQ
UniProt P9WNZ1, whole entry: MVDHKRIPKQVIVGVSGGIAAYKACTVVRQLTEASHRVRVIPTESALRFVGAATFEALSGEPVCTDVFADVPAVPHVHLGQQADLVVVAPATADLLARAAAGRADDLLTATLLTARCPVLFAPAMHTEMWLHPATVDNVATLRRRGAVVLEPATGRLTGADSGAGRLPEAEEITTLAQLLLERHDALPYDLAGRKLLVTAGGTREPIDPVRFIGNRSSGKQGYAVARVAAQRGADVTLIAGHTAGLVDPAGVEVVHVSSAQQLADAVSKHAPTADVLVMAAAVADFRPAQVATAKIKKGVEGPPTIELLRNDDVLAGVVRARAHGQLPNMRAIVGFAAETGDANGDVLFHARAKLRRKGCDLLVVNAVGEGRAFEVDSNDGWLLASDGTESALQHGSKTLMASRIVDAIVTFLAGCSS
UniProt P9WFT3, whole entry: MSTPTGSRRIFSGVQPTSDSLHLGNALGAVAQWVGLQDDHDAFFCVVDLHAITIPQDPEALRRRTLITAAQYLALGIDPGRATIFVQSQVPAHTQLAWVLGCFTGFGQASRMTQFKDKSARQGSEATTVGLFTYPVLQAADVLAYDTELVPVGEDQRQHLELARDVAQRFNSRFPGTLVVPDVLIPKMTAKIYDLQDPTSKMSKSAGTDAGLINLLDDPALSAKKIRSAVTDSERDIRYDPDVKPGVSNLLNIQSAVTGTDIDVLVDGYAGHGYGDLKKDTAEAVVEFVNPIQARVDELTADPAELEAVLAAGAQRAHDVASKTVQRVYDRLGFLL
UniProt A4I591, 1-473: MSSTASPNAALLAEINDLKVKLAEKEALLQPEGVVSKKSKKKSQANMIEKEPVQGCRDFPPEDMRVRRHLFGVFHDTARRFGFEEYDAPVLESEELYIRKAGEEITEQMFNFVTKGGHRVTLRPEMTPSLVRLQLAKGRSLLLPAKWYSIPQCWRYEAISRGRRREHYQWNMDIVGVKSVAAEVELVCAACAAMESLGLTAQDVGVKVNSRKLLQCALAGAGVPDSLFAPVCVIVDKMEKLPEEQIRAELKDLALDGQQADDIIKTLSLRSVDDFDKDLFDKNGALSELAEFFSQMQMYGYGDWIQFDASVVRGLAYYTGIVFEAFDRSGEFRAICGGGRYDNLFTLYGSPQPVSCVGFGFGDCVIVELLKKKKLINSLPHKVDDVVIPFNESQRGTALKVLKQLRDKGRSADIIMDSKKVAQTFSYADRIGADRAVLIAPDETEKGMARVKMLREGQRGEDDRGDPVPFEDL
UniProt Q4DA54, 1-478: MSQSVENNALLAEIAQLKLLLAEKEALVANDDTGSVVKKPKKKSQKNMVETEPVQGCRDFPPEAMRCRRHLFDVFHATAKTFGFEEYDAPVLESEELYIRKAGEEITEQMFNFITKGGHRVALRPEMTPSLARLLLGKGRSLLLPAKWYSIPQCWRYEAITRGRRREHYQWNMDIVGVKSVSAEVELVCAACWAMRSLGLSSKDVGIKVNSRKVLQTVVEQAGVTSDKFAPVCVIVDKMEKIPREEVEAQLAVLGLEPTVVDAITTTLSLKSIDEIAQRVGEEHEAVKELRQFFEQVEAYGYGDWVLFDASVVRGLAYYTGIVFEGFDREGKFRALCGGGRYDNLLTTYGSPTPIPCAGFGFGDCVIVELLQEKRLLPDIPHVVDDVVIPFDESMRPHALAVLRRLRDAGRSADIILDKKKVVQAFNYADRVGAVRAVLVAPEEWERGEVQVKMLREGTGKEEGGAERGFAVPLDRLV

Data taken from ChEMBL document CHEMBL3988442, “University of Dundee, Small-Polar-MMV Screening Library” (2021).

Results are given as percent effect.
The record does not define 0% and 100%; most values in the screen are far below 50% and negative numbers occur (in some assays of this library far below -100).
This is an unselected part of the compounds tested.
A dash means the value is not listed here; it may have been measured.

Pks13 thioesterase: 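Polyketide synthase Pks13, Mycobacterium tuberculosis (UniProt I6X8D2). Enzyme assay of the thioesterase domain of polyketide synthase 13; the read-out is not stated. Compounds at 30 µM. Higher reads as stronger inhibition (inferred from which compounds were picked for retests). About 67,000 compounds were tested under these conditions; 0.46% (about 300) showed 50% or more at least once.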
Toxoplasma: 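Assay of Toxoplasma gondii numbers, read through their beta-galactosidase reporter with a colour substrate. Tested at 10 µM. Higher reads as fewer parasites (inferred from which compounds were picked for retests). Of about 67,000 compounds tested this way, about 260 (0.38%) reached 50% or more in at least one test.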
CoaBC: 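Enzyme assay of CoaBC with a phosphate dye (Biomol Green) read at 650 nm. Target: Coenzyme A biosynthesis protein CoaBC, Mycobacterium tuberculosis (UniProt P9WNZ1). Compounds at 30 µM. Direction is inferred from only a few compounds that gave an IC50; most scored high, so higher reads as stronger inhibition. Most strong results did not repeat in a second test. About 67,000 compounds were tested under these conditions; 0.06% (about 40) showed 50% or more at least once.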
MtTrpRS: 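Enzyme assay of tryptophanyl-tRNA synthetase; the read-out is not stated. Target: Tryptophan-tRNA ligase, Mycobacterium tuberculosis (UniProt P9WFT3). Compounds at 10 µM. Higher most likely means stronger inhibition; the record gives no direction and few retests gave an IC50. Of about 65,000 compounds tested this way, about 64 (0.098%) reached 50% or more in at least one test.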
LiHisRS: 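Histidine-tRNA ligase, Leishmania infantum (UniProt A4I591). Enzyme assay of histidyl-tRNA synthetase; the read-out is not stated. Tested at 30 µM. Direction is inferred from retests: higher values go with stronger inhibition. The assay is labelled LdHisRS but filed under L. infantum. Size under these conditions: about 69,000 compounds, about 410 of them at 50% or above in at least one test.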
TcHisRS: 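Histidine-tRNA ligase, Trypanosoma cruzi CL Brener (UniProt Q4DA54). Enzyme assay of histidyl-tRNA synthetase; the read-out is not stated. Concentration: 30 µM. The record gives no direction; compounds that gave an IC50 in retests scored well above the rest, so higher reads as stronger inhibition. About 69,000 compounds were tested under these conditions; 0.045% (about 31) showed 50% or more at least once.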

CC(C)N(C)Cc1cc(=O)n2c(n1)CN(S(=O)(=O)C1CC1)CCC2.O=C(O)C(F)(F)F gave Toxoplasma: -22.25%.
CCOc1ccnc(N2CCN(C(=O)c3cn[nH]c3CC)CC2)n1 gave Pks13 thioesterase: -27.03%; CoaBC: -0.7712%; MtTrpRS: -3.855%; LiHisRS: 14.61%; TcHisRS: 3.759%.
CC(C)NCc1nc(-c2ccc3c(c2)OCO3)c[nH]1.Cl.Cl gave Toxoplasma: -2.412%.
CC1N(CC2CC2)C(=O)COC12CCN(C(=O)c1cccs1)CC2 (stereo not given) gave Pks13 thioesterase: -11.16%; Toxoplasma: -2.926%; MtTrpRS: 0.0969%; LiHisRS: 10.26%; TcHisRS: 2.454%.
NC(=O)CN1CCC2(CC1)C[C@@H](O)[C@H](c1ccccc1)NC2=O gave Pks13 thioesterase: -0.4448%; Toxoplasma: 11.46%; CoaBC: 6.057%; MtTrpRS: 4.863%; LiHisRS: 11.72%; TcHisRS: 3.802%.
Cn1cc(C(=O)N2CCOc3cc(F)ccc32)ccc1=O gave Pks13 thioesterase: -31.86%; Toxoplasma: -7.995%; CoaBC: -16.53%; MtTrpRS: -5.57%; LiHisRS: 1.333%; TcHisRS: -5.202%.
CS(=O)(=O)NC[C@]12COC[C@H]1CN(C(=O)c1ncccn1)C2 gave Pks13 thioesterase: -1.882%; CoaBC: 0.6316%; MtTrpRS: 3.426%; LiHisRS: 0.885%; TcHisRS: 1.075%.
Cc1nc(C(C)C)sc1C(=O)N1CCN(C2CN3CCC2CC3)CC1 (stereo not given) gave Pks13 thioesterase: -8.342%; Toxoplasma: -3.499%; CoaBC: -12.07%; MtTrpRS: 5.433%; LiHisRS: 16.33%; TcHisRS: 3%.
CCn1c(CN2CCCC2)nnc1C1CCN(Cc2ccc(C)o2)CC1 gave Pks13 thioesterase: -16.9%; Toxoplasma: -7.414%; CoaBC: 9.211%; MtTrpRS: 0.919%; LiHisRS: 13.33%; TcHisRS: 1.653%.
O=C(O)C(F)(F)F.[H][C@@]12CN(C(=O)c3cccnc3)C[C@]1([H])C(=O)N(Cc1cccc(F)c1)C2 gave Toxoplasma: -3.118%.
COCCc1ncc(CN2CCCC(C(=O)c3ccccc3)C2)cn1 (stereo not given) gave Pks13 thioesterase: 1.754%; Toxoplasma: 7.249%; CoaBC: 1.908%; MtTrpRS: 6.236%; LiHisRS: 21.95%; TcHisRS: 9.135%.
[H][C@@]12CCN(S(=O)(=O)CC)CC[C@]1([H])[C@H](COCC1CC1)CN(C)C2=O gave Toxoplasma: -1.554%.
[H][C@]12CC[C@]([H])(CN(C(=O)COc3ccc(F)c(Cl)c3)C1)N(CCOC)C2=O gave Toxoplasma: 6.382%.
Cc1cccc(C(=O)N2CC[C@]3(C[C@H](OCc4ccccn4)CO3)C2)c1.O=C(O)C(F)(F)F gave Toxoplasma: 4.069%.
Cc1c(C(=O)N2CCSCC2)sc2nc(C(F)(F)F)ccc12 gave Pks13 thioesterase: -22.13%; Toxoplasma: 0.4327%; CoaBC: 6.341%; MtTrpRS: 2.886%; LiHisRS: 13.33%; TcHisRS: 6.494%.
Cc1cc(CN(C)CCN(C)c2ccccc2)no1 gave Pks13 thioesterase: -9.638%; Toxoplasma: -9.815%; CoaBC: 5.909%; MtTrpRS: -2.974%; LiHisRS: 2.74%; TcHisRS: 2.703%.
O=C(O)CN1CCOCC(Cc2ccc(Cl)cc2)C1 (stereo not given) gave Pks13 thioesterase: -6.228%; Toxoplasma: 4.393%; CoaBC: 3.346%; LiHisRS: 8%; TcHisRS: 4.494%.
CC(C)CNC(=O)Cc1cnc(-n2cccc2)s1 gave Pks13 thioesterase: -14.67%; Toxoplasma: -28.07%; CoaBC: 0.8861%; MtTrpRS: -1.492%; LiHisRS: 12.5%; TcHisRS: 4.969%.
CC(C)(C)C(=O)NCC(=O)NCCc1nc(C(F)(F)F)cs1 gave Pks13 thioesterase: -1.009%; Toxoplasma: 5.455%; CoaBC: 1.167%; MtTrpRS: -1.519%; LiHisRS: 11.71%; TcHisRS: 5%.
NC(=O)c1cc(C2CCCN(C(=O)CCc3ccccn3)C2)n[nH]1 (stereo not given) gave Pks13 thioesterase: -10.6%; Toxoplasma: 7.714%; CoaBC: 0.9558%; MtTrpRS: -3.626%; LiHisRS: 5.769%; TcHisRS: 0%.
CS(=O)(=O)c1ccc(NC(=O)N2C[C@H](O)[C@@H](N3CCOCC3)C2)cc1 gave Pks13 thioesterase: -24.7%; Toxoplasma: -9.613%; CoaBC: 2.978%; MtTrpRS: 6.662%; LiHisRS: 10.64%; TcHisRS: 14.45%.
O=C(C1CNCCN1C(=O)CCOc1ccccc1)N1CCOCC1 (stereo not given) gave Pks13 thioesterase: -9.902%; Toxoplasma: 22.64%; CoaBC: 0.8805%; MtTrpRS: -2.585%; LiHisRS: 0%; TcHisRS: -3.571%.

For reference, 2 entries once more:

SMILES,Pks13 thioesterase,Toxoplasma,CoaBC,MtTrpRS,LiHisRS,TcHisRS
[H][C@]12CC[C@]([H])(CN(C(=O)COc3ccc(F)c(Cl)c3)C1)N(CCOC)C2=O,-,6.382%,-,-,-,-
CC(C)(C)C(=O)NCC(=O)NCCc1nc(C(F)(F)F)cs1,-1.009%,5.455%,1.167%,-1.519%,11.71%,5%